Source: patent US20160030629A1, “PEPTIDE-ALBUMIN HYDROGEL PROPERTIES AND ITS APPLICATIONS” (KANSAS STATE UNIVERSITY RESEARCH FOUNDATION, priority 2012, published 2016)
No constants are given. Whether binding was seen depends on the method and setting. Some binding calls cover weakened binding; strength is not graded here.

The chains behind the UniProt entries cited, without tags or fusion partners. Residues count along the entry.
UniProt P02769, residues 25-607: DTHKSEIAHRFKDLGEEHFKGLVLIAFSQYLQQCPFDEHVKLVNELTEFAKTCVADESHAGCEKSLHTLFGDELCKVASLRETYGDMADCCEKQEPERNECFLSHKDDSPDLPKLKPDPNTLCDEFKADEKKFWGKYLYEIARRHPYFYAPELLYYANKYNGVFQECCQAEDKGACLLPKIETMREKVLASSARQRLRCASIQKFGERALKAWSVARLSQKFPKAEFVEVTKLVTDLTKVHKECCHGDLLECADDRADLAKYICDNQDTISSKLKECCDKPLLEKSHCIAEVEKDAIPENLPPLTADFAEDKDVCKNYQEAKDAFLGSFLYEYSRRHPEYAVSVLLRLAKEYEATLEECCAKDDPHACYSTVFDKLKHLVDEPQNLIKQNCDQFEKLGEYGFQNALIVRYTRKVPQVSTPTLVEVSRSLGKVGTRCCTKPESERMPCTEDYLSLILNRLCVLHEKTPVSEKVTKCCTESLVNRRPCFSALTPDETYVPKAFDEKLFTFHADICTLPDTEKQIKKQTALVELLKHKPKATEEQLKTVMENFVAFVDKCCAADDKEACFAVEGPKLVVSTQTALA
UniProt P02768, residues 25-609: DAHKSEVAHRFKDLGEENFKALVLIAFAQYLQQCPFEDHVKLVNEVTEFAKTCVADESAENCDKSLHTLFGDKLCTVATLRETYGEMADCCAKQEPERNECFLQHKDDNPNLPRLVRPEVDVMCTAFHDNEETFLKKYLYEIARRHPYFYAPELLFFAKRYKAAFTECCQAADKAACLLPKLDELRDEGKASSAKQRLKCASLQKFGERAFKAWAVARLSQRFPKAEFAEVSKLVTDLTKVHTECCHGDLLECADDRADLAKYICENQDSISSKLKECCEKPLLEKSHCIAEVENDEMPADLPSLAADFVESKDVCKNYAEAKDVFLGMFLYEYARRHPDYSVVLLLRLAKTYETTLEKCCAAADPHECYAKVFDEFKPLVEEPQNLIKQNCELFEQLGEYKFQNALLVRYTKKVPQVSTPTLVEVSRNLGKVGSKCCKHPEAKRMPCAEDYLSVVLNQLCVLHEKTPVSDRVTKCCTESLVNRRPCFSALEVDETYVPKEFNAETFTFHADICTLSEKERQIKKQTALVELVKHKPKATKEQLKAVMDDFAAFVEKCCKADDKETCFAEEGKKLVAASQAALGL

Assays:
[1] = target: Bovine Serum Albumin (bovine) (UniProt P02769); assay: TEM (negative stain) of h9e/BSA mixture
[2] = target: Human Serum Albumin (human) (UniProt P02768); assay: TEM (negative stain) of h9e/HSA mixture

FLIVIGSIIGPGGDGPGGD [h9e peptide]
binding [1]: binds | binding [2]: binds
